Measurements reported in article PMC5064014.
These are yes or no findings as the source states them, for the method shown. Binding seen in cells or lysates may run through a third protein. These calls come from enrichment with a bait or labelling near it, and not all partners need be listed.

By UniProt entry, the sequences of proteins in these tests, tags left out.
UniProt Q8N5F7: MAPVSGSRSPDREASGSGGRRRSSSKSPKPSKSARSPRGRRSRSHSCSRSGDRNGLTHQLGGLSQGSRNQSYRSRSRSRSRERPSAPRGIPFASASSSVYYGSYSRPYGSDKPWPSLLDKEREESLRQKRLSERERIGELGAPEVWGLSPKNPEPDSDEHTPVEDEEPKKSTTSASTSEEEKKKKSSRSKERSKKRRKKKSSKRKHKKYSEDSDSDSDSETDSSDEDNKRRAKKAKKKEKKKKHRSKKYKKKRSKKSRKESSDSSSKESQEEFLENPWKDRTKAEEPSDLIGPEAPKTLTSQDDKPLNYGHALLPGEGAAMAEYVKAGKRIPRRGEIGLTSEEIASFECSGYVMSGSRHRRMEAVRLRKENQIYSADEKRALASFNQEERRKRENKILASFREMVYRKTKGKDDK
UniProt O43684: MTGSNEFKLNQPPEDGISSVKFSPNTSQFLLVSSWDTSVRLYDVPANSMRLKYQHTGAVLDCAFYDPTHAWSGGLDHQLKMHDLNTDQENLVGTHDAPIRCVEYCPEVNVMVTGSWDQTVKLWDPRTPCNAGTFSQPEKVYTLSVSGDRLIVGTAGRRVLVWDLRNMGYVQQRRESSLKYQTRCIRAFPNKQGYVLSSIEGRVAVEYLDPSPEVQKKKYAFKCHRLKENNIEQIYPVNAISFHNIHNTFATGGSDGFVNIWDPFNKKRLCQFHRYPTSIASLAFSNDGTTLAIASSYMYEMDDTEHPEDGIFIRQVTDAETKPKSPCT
UniProt O60566: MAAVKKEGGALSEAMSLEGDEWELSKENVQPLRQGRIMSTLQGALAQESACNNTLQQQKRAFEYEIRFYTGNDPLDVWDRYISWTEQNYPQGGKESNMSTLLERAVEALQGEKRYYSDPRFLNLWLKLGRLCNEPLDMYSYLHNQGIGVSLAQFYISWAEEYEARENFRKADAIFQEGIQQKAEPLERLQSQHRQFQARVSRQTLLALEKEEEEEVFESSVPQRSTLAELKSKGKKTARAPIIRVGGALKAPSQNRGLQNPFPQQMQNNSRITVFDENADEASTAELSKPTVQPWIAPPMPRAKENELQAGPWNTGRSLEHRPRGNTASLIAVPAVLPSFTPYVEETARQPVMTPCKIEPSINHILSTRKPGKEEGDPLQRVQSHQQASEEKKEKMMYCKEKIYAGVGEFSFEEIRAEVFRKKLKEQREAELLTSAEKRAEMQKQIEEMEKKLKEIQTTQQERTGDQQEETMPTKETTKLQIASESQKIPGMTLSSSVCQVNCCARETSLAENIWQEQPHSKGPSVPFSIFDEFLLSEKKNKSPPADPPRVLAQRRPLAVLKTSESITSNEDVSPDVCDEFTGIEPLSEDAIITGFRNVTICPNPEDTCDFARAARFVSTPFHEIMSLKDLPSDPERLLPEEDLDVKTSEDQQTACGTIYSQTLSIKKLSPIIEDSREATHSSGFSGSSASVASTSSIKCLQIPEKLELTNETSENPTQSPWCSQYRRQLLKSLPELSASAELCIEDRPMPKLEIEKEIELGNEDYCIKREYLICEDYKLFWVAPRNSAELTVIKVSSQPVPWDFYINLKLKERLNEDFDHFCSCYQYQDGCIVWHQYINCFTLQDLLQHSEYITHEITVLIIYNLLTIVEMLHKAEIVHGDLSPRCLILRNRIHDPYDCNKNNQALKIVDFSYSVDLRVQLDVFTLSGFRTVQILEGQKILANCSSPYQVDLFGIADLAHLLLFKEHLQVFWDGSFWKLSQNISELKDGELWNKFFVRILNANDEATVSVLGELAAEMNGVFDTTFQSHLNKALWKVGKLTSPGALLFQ
UniProt O43683: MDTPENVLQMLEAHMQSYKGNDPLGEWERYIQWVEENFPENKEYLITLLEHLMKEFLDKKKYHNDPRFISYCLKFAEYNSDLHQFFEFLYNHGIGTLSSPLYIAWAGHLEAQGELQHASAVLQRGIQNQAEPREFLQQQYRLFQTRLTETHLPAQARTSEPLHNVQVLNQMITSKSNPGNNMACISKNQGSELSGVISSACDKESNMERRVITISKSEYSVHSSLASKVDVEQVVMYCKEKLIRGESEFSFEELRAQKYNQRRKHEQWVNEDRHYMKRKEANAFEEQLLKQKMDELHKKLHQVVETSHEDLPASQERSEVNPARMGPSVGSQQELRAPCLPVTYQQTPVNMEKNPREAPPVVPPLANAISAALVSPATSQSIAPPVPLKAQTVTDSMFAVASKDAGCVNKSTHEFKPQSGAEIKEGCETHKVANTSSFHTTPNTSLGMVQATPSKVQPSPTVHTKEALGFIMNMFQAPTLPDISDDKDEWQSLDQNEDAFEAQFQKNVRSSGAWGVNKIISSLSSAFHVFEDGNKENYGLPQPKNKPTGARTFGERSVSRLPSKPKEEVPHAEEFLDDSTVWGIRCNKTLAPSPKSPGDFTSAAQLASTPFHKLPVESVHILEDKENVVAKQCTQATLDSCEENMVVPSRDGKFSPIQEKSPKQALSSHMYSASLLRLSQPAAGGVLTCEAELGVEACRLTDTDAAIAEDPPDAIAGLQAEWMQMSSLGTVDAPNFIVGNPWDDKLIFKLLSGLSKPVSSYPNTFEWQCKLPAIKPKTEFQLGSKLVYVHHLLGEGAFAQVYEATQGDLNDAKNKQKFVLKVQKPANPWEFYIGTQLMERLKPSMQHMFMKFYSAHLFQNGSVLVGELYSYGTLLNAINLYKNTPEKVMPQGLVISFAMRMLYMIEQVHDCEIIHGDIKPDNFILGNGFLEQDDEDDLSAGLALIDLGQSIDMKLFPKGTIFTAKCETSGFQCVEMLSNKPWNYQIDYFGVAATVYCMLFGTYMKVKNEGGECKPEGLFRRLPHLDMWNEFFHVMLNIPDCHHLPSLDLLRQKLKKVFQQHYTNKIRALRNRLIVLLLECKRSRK

target: Flag-NKAP (wild type) (human) (UniProt Q8N5F7); test: affinity purification with mass spectrometry; lysates of prometaphase HeLa cells stably expressing Flag-vector/Flag-NKAP; Flag immunocomplex, gel bands digested and analysed by mass spectrometry

binding	Substance
binds	Bub3 (endogenous, HeLa) (from UniProt O43684 1-328)
binds	BubR1 (endogenous, HeLa) (from UniProt O60566 1-1050)
binds	Bub1 (endogenous, HeLa) (from UniProt O43683 1-1085)
